The experiment concerns the target Nucleophosmin 1 (mouse (endogenous in MNK3)) (UniProt Q61937). The experiment in a line: co-IP; lysate of stimulated MNK3 cells (IL-1β and IL-23); IP lysis buffer 20 mmol/l Tris pH 7.5, 150 mmol/l NaCl, 1% Triton X-100; antibody overnight at 4 °C, protein A/G magnetic beads, washed with PBS; immunoblot. (In general: Immunoblotting shows a protein as a band on a membrane.)

By UniProt entry, the sequences of proteins in these tests, tags left out.
UniProt Q61937: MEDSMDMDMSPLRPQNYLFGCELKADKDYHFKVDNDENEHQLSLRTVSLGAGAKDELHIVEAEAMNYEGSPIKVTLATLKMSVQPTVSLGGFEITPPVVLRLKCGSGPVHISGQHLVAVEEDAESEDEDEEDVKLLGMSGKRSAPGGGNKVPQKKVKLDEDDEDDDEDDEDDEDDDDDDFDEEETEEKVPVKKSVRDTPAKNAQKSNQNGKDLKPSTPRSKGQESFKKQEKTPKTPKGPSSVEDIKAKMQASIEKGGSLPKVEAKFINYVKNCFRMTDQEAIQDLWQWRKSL
UniProt Q04207: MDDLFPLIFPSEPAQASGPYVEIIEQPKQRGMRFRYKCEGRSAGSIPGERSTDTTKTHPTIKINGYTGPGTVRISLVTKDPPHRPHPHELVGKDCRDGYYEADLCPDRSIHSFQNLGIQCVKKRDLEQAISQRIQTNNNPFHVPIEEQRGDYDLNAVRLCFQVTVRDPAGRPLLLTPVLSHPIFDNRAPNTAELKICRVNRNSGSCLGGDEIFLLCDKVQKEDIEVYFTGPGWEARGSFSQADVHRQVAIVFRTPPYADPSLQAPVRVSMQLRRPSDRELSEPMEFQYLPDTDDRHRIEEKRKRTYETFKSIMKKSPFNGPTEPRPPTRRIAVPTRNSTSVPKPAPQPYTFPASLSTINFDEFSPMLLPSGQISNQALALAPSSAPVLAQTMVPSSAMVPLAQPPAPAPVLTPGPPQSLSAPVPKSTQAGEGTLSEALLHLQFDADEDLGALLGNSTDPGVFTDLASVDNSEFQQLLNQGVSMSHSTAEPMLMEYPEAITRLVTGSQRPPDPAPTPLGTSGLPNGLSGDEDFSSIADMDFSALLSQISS

Data on 1 substance can be found in article PMC11362010.

Results are given in words; binding and its absence hold for the method and conditions named. Binding seen in cells or lysates may run through a third protein. Some results given as binding are weak or reduced against the parent protein; the word gives no strength.

As to “p65, a component of the nuclear factor kappa B (NF-κB) transcription factor (from UniProt Q04207 1-549)”, the binding result is “binds”.
